PubChem BioAssay AID1259424, University of Nebraska Medical Center, 2018

- Screen: 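Rank knockdowns across the genome by resemblance to the KSR1 depletion profile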 (primary screen)
- Cell system: human HCT116 colon cancer cells
- Reagents: siRNA pool against human genes, 50 nM
- Read-out: 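Six signature mRNAs by branched-DNA multiplex assay, scaled to two housekeeping genes and non-targeting median, log2; matched to mean KSR1 knockdown profile by Pearson correlation and euclidean distance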
- Reading the numbers: mean correlation with KSR1 profile and KSR1 correlation: higher = expression change more like KSR1 knockdown; mean distance from KSR1 profile: higher = expression change less like KSR1 knockdown
The deposit covers about 14,000 reagents; shown is a part drawn at random. 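Higher correlation or smaller distance means closer resemblance to KSR1 loss; control wells, including KSR1 knockdowns, recur on many plates.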 Not stated in the record: the time to read-out.

| gene | mean correlation with KSR1 profile | mean distance from KSR1 profile | KSR1 correlation, replicate 1 | KSR1 correlation, replicate 2 | KSR1 correlation, replicate 3 |
| --- | --- | --- | --- | --- | --- |
| CEP76 | 0.0466 | 1.8 | 0.169 | 0.196 | -0.212 |
| ADGRL2 | 0.624 | 1.55 | 0.591 | 0.593 | 0.657 |
| WWC2 | 0.17 | 3.3 | 0.185 | 0.0598 | -0.0477 |
| ANKZF1 | -0.265 | 3.58 | -0.114 | -0.324 | -0.285 |
| MARCO | -0.317 | 2.12 | -0.323 | -0.169 | -0.582 |
| TLR3 | -0.199 | 2.28 | -0.112 | 0.267 | -0.667 |
| TTC12 | -0.463 | 1.66 | -0.233 | -0.504 | -0.678 |
| GINS4 | 0.592 | 1.21 | 0.492 | 0.468 | 0.649 |
| GSTA3 | 0.795 | 1.05 | 0.794 | 0.425 | 0.631 |
| VMA22 | 0.494 | 1.57 | 0.374 | 0.483 | 0.441 |
| METTL16 | -0.385 | 1.18 | -0.183 | -0.847 | -0.561 |
| CCR2 | 0.722 | 1.14 | 0.533 | 0.794 | 0.712 |
| CAB39L | 0.237 | 1.8 | 0.0569 | 0.258 | 0.161 |
| CAND2 | 0.248 | 1.77 | 0.342 | 0.189 | 0.276 |
| FRG2 | -0.318 | 2.37 | -0.191 | -0.464 | -0.222 |
| SNTA1 | 0.715 | 2.55 | 0.726 | 0.627 | 0.729 |
| GPR19 | 0.18 | 3.09 | 0.205 | 0.175 | 0.121 |
| ASAH2 | -0.309 | 5.83 | -0.273 | -0.486 | -0.296 |
| EIF6 | -0.234 | 3.41 | -0.128 | -0.16 | -0.325 |
| DDX28 | -0.387 | 2.13 | -0.508 | -0.208 | -0.382 |

2 of these entries, reformatted.
gene | mean correlation with KSR1 profile | mean distance from KSR1 profile | KSR1 correlation, replicate 1 | KSR1 correlation, replicate 2 | KSR1 correlation, replicate 3
WWC2 | 0.17 | 3.3 | 0.185 | 0.0598 | -0.0477
ANKZF1 | -0.265 | 3.58 | -0.114 | -0.324 | -0.285
